PubChem BioAssay AID652243 | Drosophila RNAi Screening Center – 2013
In all, the deposit lists about 24,000 reagents; shown is a random part of those with a known target gene and a result. Over the whole deposit, 246 (1%) were called active. 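Plates not normalised; calls are printed but the firefly/Renilla ratio behind them is not deposited; fold cut for lowering reported inconsistently.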 The raw values are shown without normalisation. A number with no mark means an inactive call. Not given: the amount of reagent.

Screen: 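Fly genes required for human androgen receptor driven transcription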 (primary screen)
Cell system: Drosophila S2R+ cells
Knock-down reagent: long dsRNA against Drosophila genes
Timing: 72 h (48 h, then 24 h hormone)
Treatment: synthetic androgen R1881 at 10 nM for 24 h
Measured: 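Firefly light from an androgen-responsive reporter and Renilla control light per well, raw and unnormalised, for each of two replicates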
Reading the numbers: firefly reporter light: higher = more light from androgen-responsive reporter; Renilla control light: higher = more constitutive control signal (cell number, transfection)
Call rule: 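Across duplicate plates, a knock-down whose log firefly/Renilla ratio shifted a set fold down or up from the GFP/LacZ control mean was a hit; the downward cut appears as both 1.5 and 3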
Meaning of the calls: active = hit: reporter lowered or raised; inactive = no hit

Hmgcr [DRSC16704] → firefly reporter light, replicate 1: 1.09e5; firefly reporter light, replicate 2: 1.37e5; Renilla control light, replicate 1: 1.70e6; Renilla control light, replicate 2: 1.74e6
Hmgcr [DRSC39105] → firefly reporter light, replicate 1: 3.92e5; firefly reporter light, replicate 2: 3.98e5; Renilla control light, replicate 1: 1.18e6; Renilla control light, replicate 2: 1.40e6
GNBP3 [DRSC11170] → firefly reporter light, replicate 1: 1.75e5; firefly reporter light, replicate 2: 2.23e5; Renilla control light, replicate 1: 1.70e6; Renilla control light, replicate 2: 2.01e6
Trp1 [DRSC03465] → firefly reporter light, replicate 1: 1.44e5; firefly reporter light, replicate 2: 1.12e5; Renilla control light, replicate 1: 1.14e6; Renilla control light, replicate 2: 1.24e6
Trp1 [DRSC24685] → firefly reporter light, replicate 1: 5.60e5; firefly reporter light, replicate 2: 3.27e5; Renilla control light, replicate 1: 8.92e5; Renilla control light, replicate 2: 4.98e5
Fit2 [DRSC10908] → firefly reporter light, replicate 1: 56922; firefly reporter light, replicate 2: 47751; Renilla control light, replicate 1: 6.82e5; Renilla control light, replicate 2: 4.54e5
CG33777 [DRSC38851] → firefly reporter light, replicate 1: 1.00e6; firefly reporter light, replicate 2: 8.69e5; Renilla control light, replicate 1: 2.40e6; Renilla control light, replicate 2: 2.10e6
Stt3B [DRSC16781] → firefly reporter light, replicate 1: 2.46e5; firefly reporter light, replicate 2: 2.40e5; Renilla control light, replicate 1: 2.33e6; Renilla control light, replicate 2: 2.03e6
l(2)k05911 [DRSC02523] → firefly reporter light, replicate 1: 6.51e5; firefly reporter light, replicate 2: 5.39e5; Renilla control light, replicate 1: 3.49e6; Renilla control light, replicate 2: 4.20e6
Paip2 [DRSC14504] → firefly reporter light, replicate 1: 64512; firefly reporter light, replicate 2: 40934; Renilla control light, replicate 1: 3.33e5; Renilla control light, replicate 2: 2.68e5
Tao [DRSC19573] → firefly reporter light, replicate 1: 4.19e5; firefly reporter light, replicate 2: 3.62e5; Renilla control light, replicate 1: 3.81e6; Renilla control light, replicate 2: 2.31e6
Tao [DRSC19574] → firefly reporter light, replicate 1: 4.30e5; firefly reporter light, replicate 2: 2.40e5; Renilla control light, replicate 1: 2.74e6; Renilla control light, replicate 2: 2.01e6
Tao [DRSC22639] → firefly reporter light, replicate 1: 4.79e5; firefly reporter light, replicate 2: 5.74e5; Renilla control light, replicate 1: 1.89e6; Renilla control light, replicate 2: 1.68e6
Tao [DRSC28431] → firefly reporter light, replicate 1: 2.34e5; firefly reporter light, replicate 2: 4.43e5; Renilla control light, replicate 1: 5.32e5; Renilla control light, replicate 2: 7.55e5
